The assay has as its target myc-Hrs (UniProt O14964). As to the kind of experiment: co-IP; HEK-293 cells co-transfected with myc-Hrs and GFP-tagged constructs for 24 h; lysis in 150 mM NaCl, 0.5% Triton X-100, 50 mM Tris pH 7.5; IP with anti-myc 9E10 and protein G sepharose at 4°C; blot anti-GFP.

The chains behind the UniProt entries cited, without tags or fusion partners.
UniProt O14964: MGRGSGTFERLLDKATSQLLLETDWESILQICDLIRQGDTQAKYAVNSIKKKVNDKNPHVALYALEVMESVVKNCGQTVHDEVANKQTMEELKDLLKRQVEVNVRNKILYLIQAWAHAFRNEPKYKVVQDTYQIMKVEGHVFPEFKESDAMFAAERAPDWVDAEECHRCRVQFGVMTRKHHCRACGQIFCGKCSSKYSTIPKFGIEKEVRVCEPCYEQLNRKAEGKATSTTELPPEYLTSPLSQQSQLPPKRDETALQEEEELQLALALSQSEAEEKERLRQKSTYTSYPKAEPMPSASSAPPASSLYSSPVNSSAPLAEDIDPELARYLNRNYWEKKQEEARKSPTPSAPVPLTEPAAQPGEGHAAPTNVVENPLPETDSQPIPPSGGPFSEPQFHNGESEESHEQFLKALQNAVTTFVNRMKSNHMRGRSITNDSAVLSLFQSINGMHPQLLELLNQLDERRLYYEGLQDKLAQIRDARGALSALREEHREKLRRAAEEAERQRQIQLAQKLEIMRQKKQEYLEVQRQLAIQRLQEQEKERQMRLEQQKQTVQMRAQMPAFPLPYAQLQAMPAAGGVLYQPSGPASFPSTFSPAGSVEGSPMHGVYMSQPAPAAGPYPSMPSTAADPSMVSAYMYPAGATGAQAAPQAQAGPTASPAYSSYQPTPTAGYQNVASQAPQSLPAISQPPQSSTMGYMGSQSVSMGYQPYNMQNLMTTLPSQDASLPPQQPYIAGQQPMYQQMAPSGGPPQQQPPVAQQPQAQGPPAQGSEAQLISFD
UniProt O84678: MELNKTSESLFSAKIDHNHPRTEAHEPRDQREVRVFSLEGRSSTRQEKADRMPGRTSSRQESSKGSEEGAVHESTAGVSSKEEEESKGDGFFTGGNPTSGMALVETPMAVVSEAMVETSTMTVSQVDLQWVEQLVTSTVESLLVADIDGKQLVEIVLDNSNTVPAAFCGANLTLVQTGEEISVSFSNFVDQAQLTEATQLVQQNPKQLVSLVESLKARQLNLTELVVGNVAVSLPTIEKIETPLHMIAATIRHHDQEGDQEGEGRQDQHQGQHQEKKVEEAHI

The source of these data is PMC5053991.

No constants are given. Whether binding was seen depends on the method and setting. In cells and extracts the contact can be indirect.

As for GFP-CT671 (from UniProt O84678 1-283), the binding result is “no binding”.
